No constants are given. Whether binding was seen depends on the method and setting. In cells and extracts the contact can be indirect. Some entries that bind do so weakly or less than the wild type.
Legend:
[1] = target: HA-tagged human MDC1 (human) (UniProt Q14676); assay: co-IP; HEK 293T whole cell lysates (transfected or untransfected; mock, IR 10 Gy or UV), lysis buffer 50 mM Tris, 150 mM NaCl, 1 mM EDTA, 0.5% NP-40, 1% Triton X-100; 2 μg antibody on Dynabeads protein G, 3 h, 4 °C; immunoblot
[2] = target: FLAG-tagged human TopBP1 (human) (UniProt Q92547); assay: as above

Sequences of proteins named here, by UniProt entry; tags and fusion partners are left off.
UniProt Q14676: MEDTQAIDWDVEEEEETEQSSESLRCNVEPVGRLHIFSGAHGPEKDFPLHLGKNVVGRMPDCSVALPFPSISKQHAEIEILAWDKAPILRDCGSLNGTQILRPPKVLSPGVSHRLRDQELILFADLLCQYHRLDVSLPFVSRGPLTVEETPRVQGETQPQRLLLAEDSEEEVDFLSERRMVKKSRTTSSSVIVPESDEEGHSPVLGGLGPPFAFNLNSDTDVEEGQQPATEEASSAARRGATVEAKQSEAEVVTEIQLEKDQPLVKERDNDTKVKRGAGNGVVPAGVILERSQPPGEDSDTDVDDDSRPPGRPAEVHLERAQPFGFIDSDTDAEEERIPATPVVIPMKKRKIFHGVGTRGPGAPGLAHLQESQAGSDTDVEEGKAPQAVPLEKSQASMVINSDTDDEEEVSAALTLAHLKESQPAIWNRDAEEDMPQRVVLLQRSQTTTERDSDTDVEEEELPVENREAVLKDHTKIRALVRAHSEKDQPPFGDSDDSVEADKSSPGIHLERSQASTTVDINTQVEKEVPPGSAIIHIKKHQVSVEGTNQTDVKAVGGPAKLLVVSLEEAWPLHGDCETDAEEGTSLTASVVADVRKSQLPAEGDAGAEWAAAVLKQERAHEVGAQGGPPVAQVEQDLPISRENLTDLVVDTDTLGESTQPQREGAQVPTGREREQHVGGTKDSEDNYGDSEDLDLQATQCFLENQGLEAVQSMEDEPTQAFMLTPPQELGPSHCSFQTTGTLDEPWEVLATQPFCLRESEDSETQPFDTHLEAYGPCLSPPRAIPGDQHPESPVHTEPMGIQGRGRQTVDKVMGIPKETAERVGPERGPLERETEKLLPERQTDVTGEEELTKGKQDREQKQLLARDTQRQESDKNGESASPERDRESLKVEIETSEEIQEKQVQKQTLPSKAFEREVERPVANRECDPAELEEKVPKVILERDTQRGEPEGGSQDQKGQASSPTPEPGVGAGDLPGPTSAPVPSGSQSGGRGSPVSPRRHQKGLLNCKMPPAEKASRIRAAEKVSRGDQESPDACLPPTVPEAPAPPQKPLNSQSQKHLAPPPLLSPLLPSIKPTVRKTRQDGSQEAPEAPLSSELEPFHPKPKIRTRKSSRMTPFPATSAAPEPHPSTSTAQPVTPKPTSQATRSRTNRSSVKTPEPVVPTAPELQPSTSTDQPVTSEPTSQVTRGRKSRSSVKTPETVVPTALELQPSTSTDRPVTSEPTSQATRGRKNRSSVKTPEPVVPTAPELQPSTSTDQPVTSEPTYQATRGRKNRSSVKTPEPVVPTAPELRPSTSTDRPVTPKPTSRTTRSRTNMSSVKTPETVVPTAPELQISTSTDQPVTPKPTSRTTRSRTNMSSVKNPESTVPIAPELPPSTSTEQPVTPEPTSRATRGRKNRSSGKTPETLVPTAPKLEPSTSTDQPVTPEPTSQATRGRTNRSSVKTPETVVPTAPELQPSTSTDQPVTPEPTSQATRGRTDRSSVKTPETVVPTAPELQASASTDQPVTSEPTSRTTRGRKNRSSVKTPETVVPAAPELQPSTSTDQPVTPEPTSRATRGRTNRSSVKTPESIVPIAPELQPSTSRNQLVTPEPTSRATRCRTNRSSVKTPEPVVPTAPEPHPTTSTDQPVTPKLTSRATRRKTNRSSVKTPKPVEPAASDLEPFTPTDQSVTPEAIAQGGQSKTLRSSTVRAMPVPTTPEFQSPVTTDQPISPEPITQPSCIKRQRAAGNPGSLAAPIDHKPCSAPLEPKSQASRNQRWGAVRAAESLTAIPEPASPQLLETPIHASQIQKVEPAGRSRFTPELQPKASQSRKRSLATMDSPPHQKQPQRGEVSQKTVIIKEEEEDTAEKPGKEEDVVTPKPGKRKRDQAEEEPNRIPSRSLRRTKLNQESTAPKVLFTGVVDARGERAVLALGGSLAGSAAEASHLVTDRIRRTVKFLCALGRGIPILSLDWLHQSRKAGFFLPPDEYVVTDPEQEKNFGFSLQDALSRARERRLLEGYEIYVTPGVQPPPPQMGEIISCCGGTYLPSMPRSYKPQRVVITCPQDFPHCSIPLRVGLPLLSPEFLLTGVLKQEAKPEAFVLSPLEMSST
UniProt Q92547: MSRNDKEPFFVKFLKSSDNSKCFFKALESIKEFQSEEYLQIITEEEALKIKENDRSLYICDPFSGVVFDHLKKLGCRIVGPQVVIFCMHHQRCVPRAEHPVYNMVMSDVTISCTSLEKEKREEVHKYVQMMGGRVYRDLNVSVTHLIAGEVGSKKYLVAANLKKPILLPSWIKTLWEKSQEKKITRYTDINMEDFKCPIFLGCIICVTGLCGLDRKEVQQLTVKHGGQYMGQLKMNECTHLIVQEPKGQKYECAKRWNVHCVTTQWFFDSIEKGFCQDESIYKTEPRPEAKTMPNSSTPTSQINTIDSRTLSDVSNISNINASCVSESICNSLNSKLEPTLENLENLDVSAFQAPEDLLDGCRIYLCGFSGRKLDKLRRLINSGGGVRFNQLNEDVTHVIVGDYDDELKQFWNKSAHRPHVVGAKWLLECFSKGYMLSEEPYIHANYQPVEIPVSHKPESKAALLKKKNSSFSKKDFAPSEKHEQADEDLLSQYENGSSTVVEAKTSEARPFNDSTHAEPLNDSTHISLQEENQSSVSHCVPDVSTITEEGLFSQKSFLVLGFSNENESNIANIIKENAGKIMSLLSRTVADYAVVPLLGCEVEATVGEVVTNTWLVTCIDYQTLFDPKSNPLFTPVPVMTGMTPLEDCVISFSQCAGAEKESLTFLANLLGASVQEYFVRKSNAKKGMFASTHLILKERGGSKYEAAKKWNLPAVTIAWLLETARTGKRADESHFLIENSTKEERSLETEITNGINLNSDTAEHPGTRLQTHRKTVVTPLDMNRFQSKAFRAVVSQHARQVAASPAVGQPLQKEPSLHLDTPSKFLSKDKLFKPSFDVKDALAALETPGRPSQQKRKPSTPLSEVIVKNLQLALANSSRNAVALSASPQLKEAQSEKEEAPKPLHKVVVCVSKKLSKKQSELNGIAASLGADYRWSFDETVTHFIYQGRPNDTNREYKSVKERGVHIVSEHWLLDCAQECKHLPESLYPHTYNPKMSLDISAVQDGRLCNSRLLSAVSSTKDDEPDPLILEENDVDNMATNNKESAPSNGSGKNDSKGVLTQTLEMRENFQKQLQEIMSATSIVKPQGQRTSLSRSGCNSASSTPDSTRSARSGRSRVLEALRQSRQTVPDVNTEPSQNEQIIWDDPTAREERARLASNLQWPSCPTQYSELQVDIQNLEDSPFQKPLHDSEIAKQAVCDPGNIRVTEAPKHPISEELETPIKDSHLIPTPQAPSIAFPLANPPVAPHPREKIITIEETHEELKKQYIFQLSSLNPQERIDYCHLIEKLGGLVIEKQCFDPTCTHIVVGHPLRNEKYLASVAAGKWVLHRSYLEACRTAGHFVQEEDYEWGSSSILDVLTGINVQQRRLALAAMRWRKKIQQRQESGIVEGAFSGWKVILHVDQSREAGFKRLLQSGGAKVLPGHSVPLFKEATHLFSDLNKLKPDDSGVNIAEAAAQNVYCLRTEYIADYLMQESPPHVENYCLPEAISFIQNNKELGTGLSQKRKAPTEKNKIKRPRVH
UniProt Q16531: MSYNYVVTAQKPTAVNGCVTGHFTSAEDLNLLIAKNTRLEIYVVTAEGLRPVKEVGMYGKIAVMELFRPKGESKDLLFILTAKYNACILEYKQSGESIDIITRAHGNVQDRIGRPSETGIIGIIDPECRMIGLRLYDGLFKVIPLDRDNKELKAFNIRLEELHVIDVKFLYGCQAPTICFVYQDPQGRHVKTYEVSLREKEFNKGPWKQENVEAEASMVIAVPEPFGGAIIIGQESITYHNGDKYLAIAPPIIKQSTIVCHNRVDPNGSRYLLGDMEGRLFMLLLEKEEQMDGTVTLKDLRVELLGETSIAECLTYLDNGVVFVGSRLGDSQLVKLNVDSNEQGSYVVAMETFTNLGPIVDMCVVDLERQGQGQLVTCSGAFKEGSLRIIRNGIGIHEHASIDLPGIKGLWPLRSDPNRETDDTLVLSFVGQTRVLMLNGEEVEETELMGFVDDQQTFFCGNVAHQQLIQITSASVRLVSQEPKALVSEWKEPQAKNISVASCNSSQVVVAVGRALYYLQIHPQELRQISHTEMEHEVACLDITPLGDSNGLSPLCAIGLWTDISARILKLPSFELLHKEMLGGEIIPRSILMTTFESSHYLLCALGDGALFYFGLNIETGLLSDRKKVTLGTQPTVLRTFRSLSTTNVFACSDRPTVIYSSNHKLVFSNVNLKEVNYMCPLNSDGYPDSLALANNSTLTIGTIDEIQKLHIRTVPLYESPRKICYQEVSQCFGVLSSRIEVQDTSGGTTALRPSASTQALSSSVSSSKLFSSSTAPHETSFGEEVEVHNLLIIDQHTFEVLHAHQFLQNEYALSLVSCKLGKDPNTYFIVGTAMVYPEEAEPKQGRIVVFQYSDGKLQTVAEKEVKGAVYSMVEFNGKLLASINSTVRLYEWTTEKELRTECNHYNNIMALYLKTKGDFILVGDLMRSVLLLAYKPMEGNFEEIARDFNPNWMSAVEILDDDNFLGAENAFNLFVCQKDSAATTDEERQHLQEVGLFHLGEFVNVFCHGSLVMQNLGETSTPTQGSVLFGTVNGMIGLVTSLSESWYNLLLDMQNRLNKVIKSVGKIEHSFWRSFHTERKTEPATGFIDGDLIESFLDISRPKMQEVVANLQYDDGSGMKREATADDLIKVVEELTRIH
UniProt O60934: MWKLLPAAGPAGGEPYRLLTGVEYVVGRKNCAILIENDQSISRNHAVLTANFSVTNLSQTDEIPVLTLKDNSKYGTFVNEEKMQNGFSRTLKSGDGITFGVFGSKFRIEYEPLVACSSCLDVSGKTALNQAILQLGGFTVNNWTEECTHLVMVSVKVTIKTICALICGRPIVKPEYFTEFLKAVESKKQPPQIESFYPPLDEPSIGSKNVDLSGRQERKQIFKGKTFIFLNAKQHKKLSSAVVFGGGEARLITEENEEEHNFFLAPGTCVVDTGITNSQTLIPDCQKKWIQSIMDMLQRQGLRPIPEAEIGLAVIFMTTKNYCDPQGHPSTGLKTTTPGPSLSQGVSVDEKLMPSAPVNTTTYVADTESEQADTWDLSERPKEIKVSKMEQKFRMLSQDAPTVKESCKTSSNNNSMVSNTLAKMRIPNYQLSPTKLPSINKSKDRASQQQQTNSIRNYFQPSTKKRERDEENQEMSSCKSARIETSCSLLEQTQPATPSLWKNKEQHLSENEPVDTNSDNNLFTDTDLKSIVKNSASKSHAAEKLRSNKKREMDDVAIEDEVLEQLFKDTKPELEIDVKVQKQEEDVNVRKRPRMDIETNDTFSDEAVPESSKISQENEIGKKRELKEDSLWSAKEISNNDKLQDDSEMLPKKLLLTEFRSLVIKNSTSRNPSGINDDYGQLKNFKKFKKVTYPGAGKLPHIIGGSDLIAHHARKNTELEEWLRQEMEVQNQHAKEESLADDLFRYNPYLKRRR

| binding [1] | binding [2] | Substance |
| --- | --- | --- |
| binds | – | DDB1, endogenous in HEK 293T cells (from UniProt Q16531 1-1140) |
| – | binds | HA-tagged human DDB1 (from UniProt Q16531 1-1140) |
| binds | – | NBS1, endogenous in HEK 293T cells (from UniProt O60934 1-754) |

— PMC11642328
